These are literature values, as cited in US20210388002A1, “DIMETHOXYBENZENE COMPOUND ANALOGS, METHODS FOR ANALYZING SAID COMPOUNDS AND STANDARD PRODUCTS OF SAID COMPOUNDS” (TAIHO PHARMACEUTICAL CO., LTD., priority 2018, published 2021).

The conditions of data set [1]: background statement, PTL 1 to 5; cited from earlier work.
The subject of data set [2] is fibroblast growth factor receptor (FGFR). Particulars: background statement, PTL 1 to 5; cited from earlier work.

Consider `C=CC(=O)N1CC[C@H](n2nc(C#Cc3cc(OC)cc(OC)c3)c3c(N)ncnc32)C1` [compound A, (S)-1-(3-(4-amino-3-((3,5-dimethoxyphenyl)ethynyl)-1H-pyrazolo[3,4-d]pyrimidin-1-yl)pyrrolidin-1-yl)-2-propen-1-one], for which the antitumor activity entry in data set [1] is “exhibiting antitumor activity”. Besides, the “inhibitory activity on the fibroblast growth factor receptor (FGFR)” value in data set [2] is reported as “excellent inhibitory activity”.
